Article PMC4490383
Results are given in words; binding and its absence hold for the method and conditions named. Binding seen in cells or lysates may run through a third protein. Here binding means that the protein was enriched with, or labelled near, the bait; the list need not be complete.

Protein sequences, listed by entry. Tags and fused reporters are not part of them.
UniProt O14737: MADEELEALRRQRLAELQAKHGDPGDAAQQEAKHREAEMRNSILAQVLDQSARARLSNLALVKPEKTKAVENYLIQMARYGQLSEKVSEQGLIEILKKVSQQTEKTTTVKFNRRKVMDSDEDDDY
UniProt O15379: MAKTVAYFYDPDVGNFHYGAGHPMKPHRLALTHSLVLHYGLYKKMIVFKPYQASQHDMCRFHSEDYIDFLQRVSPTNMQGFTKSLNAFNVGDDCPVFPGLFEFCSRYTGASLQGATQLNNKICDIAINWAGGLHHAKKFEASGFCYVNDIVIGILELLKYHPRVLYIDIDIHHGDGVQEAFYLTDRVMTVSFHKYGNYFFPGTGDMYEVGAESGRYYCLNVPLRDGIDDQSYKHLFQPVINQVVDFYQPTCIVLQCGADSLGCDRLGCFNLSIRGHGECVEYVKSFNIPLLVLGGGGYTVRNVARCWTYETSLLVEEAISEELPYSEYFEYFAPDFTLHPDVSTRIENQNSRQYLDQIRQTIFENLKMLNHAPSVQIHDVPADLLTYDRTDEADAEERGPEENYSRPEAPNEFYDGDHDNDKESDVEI

Target: PDCD5 wild type (construct not told in the main text) (UniProt O14737)
Experiment: affinity purification with mass spectrometry; immunopurified PDCD5 complex, trypsin digest, LC-MS/MS (LTQ Orbitrap XL)

binding: binds
Substance: HDAC3 (construct not told in the main text; supplementary experiments) (from UniProt O15379 1-428)
